Data as given in the supplement of paper PMC4604168 (melanoma cell lines).
The list shows a part of the results. Repeats are few or missing, and single values can be far off.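 Imaging used 1,536-well plates; nuclei positive for cleaved PARP by antibody were divided by total DNA-stained nuclei to yield the apoptosis fraction. Doses for screening kept most cells viable, and cell lines differ markedly in resting and induced cleaved-PARP levels.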

Assays:
Test in all cases: cleaved PARP positive nuclei fraction relative to DMSO control; melanoma cells; higher = more apoptosis
Conditions in all cases: library dose: low library concentration; 72 h
WM115 = system: WM115
WM1716 = system: WM1716
WM1745 = system: WM1745
WM3526 = system: WM3526
WM3619 = system: WM3619
WM451Lu = system: WM451Lu

Compound	cleaved PARP positive nuclei fraction (WM115) [%]	cleaved PARP positive nuclei fraction (WM1716) [%]	cleaved PARP positive nuclei fraction (WM1745) [%]	cleaved PARP positive nuclei fraction (WM3526) [%]	cleaved PARP positive nuclei fraction (WM3619) [%]	cleaved PARP positive nuclei fraction (WM451Lu) [%]
CC1(C)NC(=O)N(c2ccc([N+](=O)[O-])c(C(F)(F)F)c2)C1=O [nilutamide] + COc1cc(N2CCC(N3CCN(C)CC3)CC2)ccc1Nc1ncc(Cl)c(Nc2ccccc2S(=O)(=O)C(C)C)n1 [NVP-TAE684] (first compound 1 µM, partner dose 0.08 µM)	110	54.1	112	103	84.3	33.5
Cn1c(Nc2ccc(C(F)(F)F)cc2)nc2cc(Oc3ccnc(-c4ncc(C(F)(F)F)[nH]4)c3)ccc21 + O=C(Nc1ccccc1)c1cc([N+](=O)[O-])ccc1Cl [GW9662] (first compound 0.08 µM, partner dose 2 µM)	250	106	130	393	112	48.5
Cc1cc(N2CCOCC2)cc2[nH]c(-c3c(NC[C@@H](O)c4cccc(Cl)c4)cc[nH]c3=O)nc12 + Oc1cc(-c2nc(-c3ccccc3)[nH]c2-c2ccncc2)ccc1Cl [L779450] (first compound 0.2 µM, partner dose 0.2 µM)	88.1	124	160	111	108	82.6
O=C(Nc1cccc(Cl)c1)Nc1ncc(CCNc2ncnc3ccsc23)s1 + Cn1cncc1[C@@](N)(c1ccc(Cl)cc1)c1ccc2c(c1)c(-c1cccc(Cl)c1)cc(=O)n2C [tipifarnib] (first compound 0.0008 µM, partner dose 0.01 µM)	108	111	115	71.9	102	69.2
OCc1c[nH]c2ccccc12 [Indole-3-carbinol] + O=C(O)c1ccc(-c2c[nH]c3ncc(-c4ccccc4)cc23)cc1C1CCCC1 [GSK650394] (first compound 0.8 µM, partner dose 0.16 µM)	90.7	88.7	95.2	54.6	110	57.2
OCCn1cc(-c2cnc3nnn(Cc4ccc5ncccc5c4)c3n2)cn1 + O=C1NC(=O)/C(=C/c2ccc(-c3ccc(F)cc3O)o2)S1 [AS252424] (first compound 1 µM, partner dose 1 µM)	70.6	155	92.9	76.9	123	67.5
CC1(C)NC(=O)N(c2ccc([N+](=O)[O-])c(C(F)(F)F)c2)C1=O [nilutamide] + N#Cc1c(O)c2c(-c3ccc(-c4ccccc4O)cc3)csc2[nH]c1=O [A769662] (first compound 1 µM, partner dose 2 µM)	89.4	136	102	66.6	71.8	114
O=C(CCCCCCC(=O)Nc1ccccc1)NO [vorinostat] + COc1ccc(-c2ccc3c(N4CCOCC4)nc(N4C[C@@H](C)O[C@@H](C)C4)nc3n2)cc1CO [KU0063794] (first compound 0.08 µM, partner dose 0.02 µM)	148	53.7	109	52.6	86.1	59
C=CCNC1=C2C[C@@H](C)C[C@H](OC)[C@H](O)[C@@H](C)/C=C(\C)[C@H](OC(N)=O)[C@@H](OC)/C=C\C=C(/C)C(=O)NC(=CC1=O)C2=O [Tanespimycin] + O=C1NC(=O)/C(=C/c2ccc(-c3ccc(F)cc3O)o2)S1 [AS252424] (first compound 0.002 µM, partner dose 1 µM)	103	62.2	110	85.6	112	406
Cc1ccc(NC(=O)c2cccc(N(C)C)c2)cc1NC(=O)c1ccc(O)cc1 + CO[C@@H]1[C@H](N(C)C(=O)c2ccccc2)C[C@H]2O[C@]1(C)n1c3ccccc3c3c4c(c5c6ccccc6n2c5c31)C(=O)NC4 [Midostaurin] (first compound 2 µM, partner dose 0.08 µM)	244	139	104	52.2	134	162
CC(C)(C)c1cnc(CSc2cnc(NC(=O)C3CCNCC3)s2)o1 + O=S(=O)(c1ccccc1)N(CC(F)(F)F)c1ccc(C(O)(C(F)(F)F)C(F)(F)F)cc1 [T0901317] (first compound 0.01 µM, partner dose 1.4 µM)	38.2	90.7	102	316	83.7	214
Clc1ccc(Nc2nnc(Cc3ccncc3)c3ccccc23)cc1 [vatalanib] + Cc1nc(Nc2ncc(C(=O)Nc3c(C)cccc3Cl)s2)cc(N2CCN(CCO)CC2)n1 [dasatanib] (first compound 2 µM, partner dose 0.004 µM)	140	186	132	82.6	101	144
C[C@]1(c2nc3c(C(N)=O)cccc3[nH]2)CCCN1 [Veliparib] + Cn1cncc1[C@@](N)(c1ccc(Cl)cc1)c1ccc2c(c1)c(-c1cccc(Cl)c1)cc(=O)n2C [tipifarnib] (first compound 1.4 µM, partner dose 0.01 µM)	367	70.4	119	66.5	90	120
C[C@]1(c2nc3c(C(N)=O)cccc3[nH]2)CCCN1 [Veliparib] + Oc1cc(-c2nc(-c3ccccc3)[nH]c2-c2ccncc2)ccc1Cl [L779450] (first compound 1.4 µM, partner dose 0.2 µM)	652	110	121	354	122	63.3
COc1cc(Nc2ncc(F)c(Nc3ccc4c(n3)NC(=O)C(C)(C)O4)n2)cc(OC)c1OC [Tamatinib] + O=S(=O)(c1ccccc1)N(CC(F)(F)F)c1ccc(C(O)(C(F)(F)F)C(F)(F)F)cc1 [T0901317] (first compound 0.4 µM, partner dose 1.4 µM)	179	51.6	158	200	106	34.5
NC(=O)Nc1cc(-c2cccc(F)c2)sc1C(=O)N[C@H]1CCCNC1 + C[C@@H]1CCN(C(=O)CC#N)C[C@@H]1N(C)c1ncnc2[nH]ccc12 [CP690550] (first compound 0.02 µM, partner dose 1 µM)	61.9	106	95	134	136	58.4
COc1cc(Nc2ncc(F)c(Nc3ccc4c(n3)NC(=O)C(C)(C)O4)n2)cc(OC)c1OC [Tamatinib] + CO[C@@H]1[C@H](N(C)C(=O)c2ccccc2)C[C@H]2O[C@]1(C)n1c3ccccc3c3c4c(c5c6ccccc6n2c5c31)C(=O)NC4 [Midostaurin] (first compound 0.4 µM, partner dose 0.08 µM)	90.8	290	170	80.9	142	123
Clc1ccc(Nc2nnc(Cc3ccncc3)c3ccccc23)cc1 [vatalanib] + CC(C)CCN1c2nc(Nc3cc(F)c(O)c(F)c3)ncc2N(C)C(=O)C1C [BID1870] (first compound 2 µM, partner dose 0.2 µM)	109	69.2	107	134	72.1	92
O=C(CCCCCCC(=O)Nc1ccccc1)NO [vorinostat] + COc1ccc2c(c1)CCC1C2CCC2(C)C(NCCCCCCN3C(=O)C=CC3=O)CCC12 [U73122] (first compound 0.08 µM, partner dose 0.4 µM)	142	76.6	104	161	75.2	138
CO[C@@H]1[C@H](N(C)C(=O)c2ccccc2)C[C@H]2O[C@]1(C)n1c3ccccc3c3c4c(c5c6ccccc6n2c5c31)C(=O)NC4 [Midostaurin] + O=C(O)c1ccc(-c2c[nH]c3ncc(-c4ccccc4)cc23)cc1C1CCCC1 [GSK650394] (first compound 0.08 µM, partner dose 0.16 µM)	36.8	147	97.2	68.4	94.9	30.8
OCCn1cc(-c2cnc3nnn(Cc4ccc5ncccc5c4)c3n2)cn1 + O=C(Nc1cccc(Cl)c1)Nc1ncc(CCNc2ncnc3ccsc23)s1 [SNS314] (first compound 1 µM, partner dose 0.0008 µM)	66.4	41.4	78.3	244	107	72.4
CC(=O)c1c(C)c2cnc(Nc3ccc(N4CCNCC4)cn3)nc2n(C2CCCC2)c1=O [palbociclib] + C[C@@H]1CCN(C(=O)CC#N)C[C@@H]1N(C)c1ncnc2[nH]ccc12 [CP690550] (first compound 0.04 µM, partner dose 1 µM)	88.3	137	119	97.7	151	71.3
CC(=O)c1c(C)c2cnc(Nc3ccc(N4CCNCC4)cn3)nc2n(C2CCCC2)c1=O [palbociclib] + Cn1cncc1[C@@](N)(c1ccc(Cl)cc1)c1ccc2c(c1)c(-c1cccc(Cl)c1)cc(=O)n2C [tipifarnib] (first compound 0.04 µM, partner dose 0.01 µM)	99.4	161	112	90.2	168	262
Cc1cc(N2CCOCC2)cc2[nH]c(-c3c(NC[C@@H](O)c4cccc(Cl)c4)cc[nH]c3=O)nc12 + COc1ccc(-c2ccc3c(N4CCOCC4)nc(N4C[C@@H](C)O[C@@H](C)C4)nc3n2)cc1CO [KU0063794] (first compound 0.2 µM, partner dose 0.02 µM)	172	82.7	146	71.9	96.8	30.2
Clc1ccc(Nc2nnc(Cc3ccncc3)c3ccccc23)cc1 [vatalanib] + O=C(CCCCCCC(=O)Nc1ccccc1)NO [vorinostat] (first compound 2 µM, partner dose 0.08 µM)	113	202	99.4	66	107	61

Reformatted bar-delimited: part of the list above.
Compound | cleaved PARP positive nuclei fraction (WM115) [%] | cleaved PARP positive nuclei fraction (WM1716) [%] | cleaved PARP positive nuclei fraction (WM1745) [%] | cleaved PARP positive nuclei fraction (WM3526) [%] | cleaved PARP positive nuclei fraction (WM3619) [%] | cleaved PARP positive nuclei fraction (WM451Lu) [%]
C[C@]1(c2nc3c(C(N)=O)cccc3[nH]2)CCCN1 [Veliparib] + Oc1cc(-c2nc(-c3ccccc3)[nH]c2-c2ccncc2)ccc1Cl [L779450] (first compound 1.4 µM, partner dose 0.2 µM) | 652 | 110 | 121 | 354 | 122 | 63.3
COc1cc(Nc2ncc(F)c(Nc3ccc4c(n3)NC(=O)C(C)(C)O4)n2)cc(OC)c1OC [Tamatinib] + O=S(=O)(c1ccccc1)N(CC(F)(F)F)c1ccc(C(O)(C(F)(F)F)C(F)(F)F)cc1 [T0901317] (first compound 0.4 µM, partner dose 1.4 µM) | 179 | 51.6 | 158 | 200 | 106 | 34.5
NC(=O)Nc1cc(-c2cccc(F)c2)sc1C(=O)N[C@H]1CCCNC1 + C[C@@H]1CCN(C(=O)CC#N)C[C@@H]1N(C)c1ncnc2[nH]ccc12 [CP690550] (first compound 0.02 µM, partner dose 1 µM) | 61.9 | 106 | 95 | 134 | 136 | 58.4
COc1cc(Nc2ncc(F)c(Nc3ccc4c(n3)NC(=O)C(C)(C)O4)n2)cc(OC)c1OC [Tamatinib] + CO[C@@H]1[C@H](N(C)C(=O)c2ccccc2)C[C@H]2O[C@]1(C)n1c3ccccc3c3c4c(c5c6ccccc6n2c5c31)C(=O)NC4 [Midostaurin] (first compound 0.4 µM, partner dose 0.08 µM) | 90.8 | 290 | 170 | 80.9 | 142 | 123
Clc1ccc(Nc2nnc(Cc3ccncc3)c3ccccc23)cc1 [vatalanib] + CC(C)CCN1c2nc(Nc3cc(F)c(O)c(F)c3)ncc2N(C)C(=O)C1C [BID1870] (first compound 2 µM, partner dose 0.2 µM) | 109 | 69.2 | 107 | 134 | 72.1 | 92
O=C(CCCCCCC(=O)Nc1ccccc1)NO [vorinostat] + COc1ccc2c(c1)CCC1C2CCC2(C)C(NCCCCCCN3C(=O)C=CC3=O)CCC12 [U73122] (first compound 0.08 µM, partner dose 0.4 µM) | 142 | 76.6 | 104 | 161 | 75.2 | 138
CO[C@@H]1[C@H](N(C)C(=O)c2ccccc2)C[C@H]2O[C@]1(C)n1c3ccccc3c3c4c(c5c6ccccc6n2c5c31)C(=O)NC4 [Midostaurin] + O=C(O)c1ccc(-c2c[nH]c3ncc(-c4ccccc4)cc23)cc1C1CCCC1 [GSK650394] (first compound 0.08 µM, partner dose 0.16 µM) | 36.8 | 147 | 97.2 | 68.4 | 94.9 | 30.8
